Reference: PubChem BioAssay AID1224830 (NIAID, 2016)
In all, the deposit lists about 18,000 reagents; shown is an unselected part. About 2,900 of them (16%) were called active. 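Calls are made per well; low scores hint the gene aids the LPS response, high scores that it dampens it.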 Unmarked entries are inactive. Repeated entries: four replicate wells of each siRNA pool. Reagent sequences are not shown.

Screen: 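Regulators of TLR4 signalling towards TNF-alpha in macrophage-like cells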 (primary screen)
Cell system: human THP-1 monocytic leukaemia cells, TNF dual-luciferase reporter clone, PMA-differentiated to macrophage-like cells
Reagents: siRNA pool against human genes, 50 nM
Timing: LPS for 4 h, given about 3 days after siRNA transfection
Treatment: bacterial LPS (TLR4 ligand), 10 ng/ml
Read-out: 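Ratio of firefly to renilla light, scaled to the plate median and expressed as a robust z-score per replicate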
Scale: TNF reporter robust z-score: higher = stronger TNF reporter response to LPS
Rule for the call: 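Each well counts as active if its z-score is over 2.8 or under -1.5; controls are left without a call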

| Gene | TNF reporter robust z-score |
| --- | --- |
| HOXA10 (homeobox A10) | -0.78 |
| HOXA10 (homeobox A10) | -0.61 |
| HOXA10 (homeobox A10) | -0.88 |
| HOXA10 (homeobox A10) | -0.64 |
| IGF2R (insulin like growth factor 2 receptor) | 0.88 |
| IGF2R (insulin like growth factor 2 receptor) | 0.77 |
| IGF2R (insulin like growth factor 2 receptor) | 1.53 |
| IGF2R (insulin like growth factor 2 receptor) | 3.34 (active) |
| SGMS1 (sphingomyelin synthase 1) | 0.03 |
| SGMS1 (sphingomyelin synthase 1) | 0.33 |
| SGMS1 (sphingomyelin synthase 1) | 0.94 |
| SGMS1 (sphingomyelin synthase 1) | 0.35 |
| BEX2 (brain expressed X-linked 2) | -0.47 |
| BEX2 (brain expressed X-linked 2) | 0 |
| BEX2 (brain expressed X-linked 2) | 0.24 |
| BEX2 (brain expressed X-linked 2) | -0.27 |
| PDCD1LG2 (programmed cell death 1 ligand 2) | -0.12 |
| PDCD1LG2 (programmed cell death 1 ligand 2) | 1.5 |
| PDCD1LG2 (programmed cell death 1 ligand 2) | 0.74 |
| PDCD1LG2 (programmed cell death 1 ligand 2) | 1.44 |
| TEKT1 (tektin 1) | 1.86 |
| TEKT1 (tektin 1) | 0.31 |
| TEKT1 (tektin 1) | 1.5 |
| TEKT1 (tektin 1) | 0.78 |
| SOST (sclerostin) | -1.83 (active) |
| SOST (sclerostin) | -0.29 |
| SOST (sclerostin) | -0.46 |
| SOST (sclerostin) | 0.41 |
| PXK (PX domain containing serine/threonine kinase like) | -0.86 |
| PXK (PX domain containing serine/threonine kinase like) | 0.56 |
| PXK (PX domain containing serine/threonine kinase like) | -1.45 |
| PTGDR (prostaglandin D2 receptor) | 0.58 |
| PTGDR (prostaglandin D2 receptor) | 1.24 |
| PTGDR (prostaglandin D2 receptor) | 0.63 |
| PTGDR (prostaglandin D2 receptor) | 0.64 |
| AMOTL1 (angiomotin like 1) | -0.74 |
| AMOTL1 (angiomotin like 1) | -0.4 |
| AMOTL1 (angiomotin like 1) | -0.41 |
| AMOTL1 (angiomotin like 1) | -0.36 |
| CCN4 (cellular communication network factor 4) | -0.45 |
| CCN4 (cellular communication network factor 4) | -0.6 |
| CCN4 (cellular communication network factor 4) | -0.94 |
| CCN4 (cellular communication network factor 4) | -1.75 (active) |
| DMRTC1B (DMRT like family C1B) | 1.3 |
| DMRTC1B (DMRT like family C1B) | 1.25 |
| DMRTC1B (DMRT like family C1B) | 0.93 |
| DMRTC1B (DMRT like family C1B) | 1.43 |
| ZNF236 (zinc finger protein 236) | 1.93 |
| ZNF236 (zinc finger protein 236) | 2.6 |
| ZNF236 (zinc finger protein 236) | 2.86 (active) |
| ZNF236 (zinc finger protein 236) | 0.57 |
| RNASEH2A (ribonuclease H2 subunit A) | -0.41 |
| RNASEH2A (ribonuclease H2 subunit A) | -0.02 |
| RNASEH2A (ribonuclease H2 subunit A) | 0.96 |
| RNASEH2A (ribonuclease H2 subunit A) | 2.96 (active) |
| TBL3 (transducin beta like 3) | -0.19 |
| TBL3 (transducin beta like 3) | -0.94 |
| TBL3 (transducin beta like 3) | 0.33 |
| TBL3 (transducin beta like 3) | -0.88 |
| HIVEP3 (HIVEP zinc finger 3) | -1.49 |
| HIVEP3 (HIVEP zinc finger 3) | -1.39 |
| HIVEP3 (HIVEP zinc finger 3) | -1.74 (active) |
| LIFR (LIF receptor subunit alpha) | 0.22 |
| LIFR (LIF receptor subunit alpha) | 0.61 |
| LIFR (LIF receptor subunit alpha) | 0.07 |
| LIFR (LIF receptor subunit alpha) | 0.5 |
| RASL10A (RAS like family 10 member A) | -0.36 |
| RASL10A (RAS like family 10 member A) | 0.88 |
| RASL10A (RAS like family 10 member A) | -0.24 |
| RASL10A (RAS like family 10 member A) | 1.03 |
| SFMBT1 (Scm like with four mbt domains 1) | 1.11 |
| SFMBT1 (Scm like with four mbt domains 1) | 0.17 |
| SFMBT1 (Scm like with four mbt domains 1) | 0.25 |
| SFMBT1 (Scm like with four mbt domains 1) | -0.2 |
| DYNLL1 (dynein light chain LC8-type 1) | -0.42 |
| DYNLL1 (dynein light chain LC8-type 1) | -0.76 |
| DYNLL1 (dynein light chain LC8-type 1) | -1.18 |
| DYNLL1 (dynein light chain LC8-type 1) | -1.02 |
| TRDN (triadin) | -0.31 |
| TRDN (triadin) | -1.26 |
| TRDN (triadin) | -0.12 |
| TRDN (triadin) | -0.29 |
| SI (sucrase-isomaltase) | -1.55 (active) |
| SI (sucrase-isomaltase) | -0.59 |
| SI (sucrase-isomaltase) | -0.55 |
| SI (sucrase-isomaltase) | -0.21 |
| DEFA6 (defensin alpha 6) | -0.08 |
| DEFA6 (defensin alpha 6) | 1.37 |
| DEFA6 (defensin alpha 6) | 1.72 |
| DEFA6 (defensin alpha 6) | 0.51 |
| RILPL2 (Rab interacting lysosomal protein like 2) | 2.49 |
| RILPL2 (Rab interacting lysosomal protein like 2) | 1.11 |
| RILPL2 (Rab interacting lysosomal protein like 2) | 3.45 (active) |
| RILPL2 (Rab interacting lysosomal protein like 2) | 1.47 |
| DSG2 (desmoglein 2) | -1.84 (active) |
| DSG2 (desmoglein 2) | -0.93 |
| DSG2 (desmoglein 2) | -1.75 (active) |
| DSG2 (desmoglein 2) | -0.84 |
| TES (testin LIM domain protein) | 0.18 |
| TES (testin LIM domain protein) | 0.52 |
| TES (testin LIM domain protein) | 0.2 |
| TES (testin LIM domain protein) | 0.98 |
| CST3 (cystatin C) | 0.03 |
| CST3 (cystatin C) | 0.24 |
| CST3 (cystatin C) | 2.51 |
| CST3 (cystatin C) | 1.12 |
| BOP1 (BOP1 ribosomal biogenesis factor) | -0.43 |
| BOP1 (BOP1 ribosomal biogenesis factor) | -0.11 |
| BOP1 (BOP1 ribosomal biogenesis factor) | -0.73 |
| BOP1 (BOP1 ribosomal biogenesis factor) | -0.61 |
| AGPAT5 (1-acylglycerol-3-phosphate O-acyltransferase 5) | 2.37 |
| AGPAT5 (1-acylglycerol-3-phosphate O-acyltransferase 5) | 0.46 |
| AGPAT5 (1-acylglycerol-3-phosphate O-acyltransferase 5) | -0.73 |
| AGPAT5 (1-acylglycerol-3-phosphate O-acyltransferase 5) | 1.09 |
| SOX11 (SRY-box transcription factor 11) | -0.23 |
| SOX11 (SRY-box transcription factor 11) | -0.16 |
| SOX11 (SRY-box transcription factor 11) | -0.17 |
| SOX11 (SRY-box transcription factor 11) | -0.06 |
| UBE2D2 (ubiquitin conjugating enzyme E2 D2) | 0.39 |
| UBE2D2 (ubiquitin conjugating enzyme E2 D2) | 4.31 (active) |
| UBE2D2 (ubiquitin conjugating enzyme E2 D2) | -0.18 |
| UBE2D2 (ubiquitin conjugating enzyme E2 D2) | 1.29 |
| STH (saitohin) | 0.24 |
| STH (saitohin) | 0.84 |
| STH (saitohin) | 0.46 |
| STH (saitohin) | -0.93 |
| RHBDF1 (rhomboid 5 homolog 1) | 0.89 |
| RHBDF1 (rhomboid 5 homolog 1) | 0.93 |
| RHBDF1 (rhomboid 5 homolog 1) | 0.53 |
| RHBDF1 (rhomboid 5 homolog 1) | 0.37 |
| HEATR3 (HEAT repeat containing 3) | 0.62 |
| HEATR3 (HEAT repeat containing 3) | 0.18 |
| HEATR3 (HEAT repeat containing 3) | -0.14 |
| HEATR3 (HEAT repeat containing 3) | -0.16 |
| TRIM39 (tripartite motif containing 39) | -0.42 |
| TRIM39 (tripartite motif containing 39) | -1.9 (active) |
| TRIM39 (tripartite motif containing 39) | -0.77 |
| TRIM39 (tripartite motif containing 39) | -0.6 |
| COMMD3 (COMM domain containing 3) | -1.35 |
| COMMD3 (COMM domain containing 3) | -0.93 |
| COMMD3 (COMM domain containing 3) | -0.71 |
| COMMD3 (COMM domain containing 3) | -0.86 |

Entries listed above with an active call (12):
| Gene | TNF reporter robust z-score |
| --- | --- |
| IGF2R (insulin like growth factor 2 receptor) | 3.34 (active) |
| SOST (sclerostin) | -1.83 (active) |
| CCN4 (cellular communication network factor 4) | -1.75 (active) |
| ZNF236 (zinc finger protein 236) | 2.86 (active) |
| RNASEH2A (ribonuclease H2 subunit A) | 2.96 (active) |
| HIVEP3 (HIVEP zinc finger 3) | -1.74 (active) |
| SI (sucrase-isomaltase) | -1.55 (active) |
| RILPL2 (Rab interacting lysosomal protein like 2) | 3.45 (active) |
| DSG2 (desmoglein 2) | -1.84 (active) |
| DSG2 (desmoglein 2) | -1.75 (active) |
| UBE2D2 (ubiquitin conjugating enzyme E2 D2) | 4.31 (active) |
| TRIM39 (tripartite motif containing 39) | -1.9 (active) |
